Here are results for one substance from article PMC6363177, “R pyocin tail fiber structure reveals a receptor-binding domain with a lectin fold” (PLoS ONE, 2019).

Sequences of proteins named here, by UniProt entry; tags and fusion partners are left off.
UniProt G3XD08: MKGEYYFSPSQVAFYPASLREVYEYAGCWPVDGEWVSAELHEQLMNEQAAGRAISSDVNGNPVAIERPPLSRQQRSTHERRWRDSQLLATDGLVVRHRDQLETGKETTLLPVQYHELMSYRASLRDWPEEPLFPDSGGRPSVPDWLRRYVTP

No constants are given. Whether binding was seen depends on the method and setting. Binding seen in cells or lysates may run through a third protein. Some results given as binding are weak or reduced against the parent protein; the word gives no strength.

In the assay the target is T1, R2-subtype N-terminally truncated tail fiber fragment (R2-NTF) (Pseudomonas aeruginosa PAO1) (UniProt G3XD71).
T1 sequence: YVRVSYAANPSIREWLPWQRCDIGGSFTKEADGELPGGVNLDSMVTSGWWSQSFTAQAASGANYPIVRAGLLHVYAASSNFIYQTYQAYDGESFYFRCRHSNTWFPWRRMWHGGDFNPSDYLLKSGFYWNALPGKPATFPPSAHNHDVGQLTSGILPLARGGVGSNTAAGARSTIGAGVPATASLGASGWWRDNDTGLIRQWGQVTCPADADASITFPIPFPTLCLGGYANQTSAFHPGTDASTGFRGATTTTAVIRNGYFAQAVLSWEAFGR
Description: pull-down; co-expression in E. coli BL21 (DE3); lysate on HisTrap FF Ni-IMAC column; wash 50mM Tris pH 8.0, 150mM NaCl, 10mM imidazole, 5% glycerol; elution with 300mM imidazole; chaperone co-purifies with the his-tagged NTF.

“R2-subtype tail fiber chaperone PA0621 (from UniProt G3XD08 1-152)”: the binding result is “binds”.
